Source: publication PMC10476466
These are yes or no findings as the source states them, for the method shown. In cells and extracts the contact can be indirect. Some binding calls cover weakened binding; strength is not graded here.

The chains behind the UniProt entries cited, without tags or fusion partners.
UniProt P06748: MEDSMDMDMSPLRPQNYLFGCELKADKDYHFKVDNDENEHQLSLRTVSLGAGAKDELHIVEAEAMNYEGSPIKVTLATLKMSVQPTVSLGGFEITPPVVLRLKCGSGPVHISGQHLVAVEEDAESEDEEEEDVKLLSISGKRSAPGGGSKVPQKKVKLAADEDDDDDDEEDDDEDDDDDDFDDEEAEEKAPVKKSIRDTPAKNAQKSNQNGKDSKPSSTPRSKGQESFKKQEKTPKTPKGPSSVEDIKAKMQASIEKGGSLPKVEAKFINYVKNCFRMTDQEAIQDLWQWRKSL

Experiments:
phospholipase D1 (PLD1) [1] = target: T1, phospholipase D1 (PLD1) (UniProt Q13393); experiment: co-IP; PLD1 or NPM1 antibody on protein A/G magnetic beads, incubated with cell extracts overnight at 4°C, washed 5 times with PBS containing 0.1% NP-40, Western blot; PLD1 overexpression cell lines
T1 sequence: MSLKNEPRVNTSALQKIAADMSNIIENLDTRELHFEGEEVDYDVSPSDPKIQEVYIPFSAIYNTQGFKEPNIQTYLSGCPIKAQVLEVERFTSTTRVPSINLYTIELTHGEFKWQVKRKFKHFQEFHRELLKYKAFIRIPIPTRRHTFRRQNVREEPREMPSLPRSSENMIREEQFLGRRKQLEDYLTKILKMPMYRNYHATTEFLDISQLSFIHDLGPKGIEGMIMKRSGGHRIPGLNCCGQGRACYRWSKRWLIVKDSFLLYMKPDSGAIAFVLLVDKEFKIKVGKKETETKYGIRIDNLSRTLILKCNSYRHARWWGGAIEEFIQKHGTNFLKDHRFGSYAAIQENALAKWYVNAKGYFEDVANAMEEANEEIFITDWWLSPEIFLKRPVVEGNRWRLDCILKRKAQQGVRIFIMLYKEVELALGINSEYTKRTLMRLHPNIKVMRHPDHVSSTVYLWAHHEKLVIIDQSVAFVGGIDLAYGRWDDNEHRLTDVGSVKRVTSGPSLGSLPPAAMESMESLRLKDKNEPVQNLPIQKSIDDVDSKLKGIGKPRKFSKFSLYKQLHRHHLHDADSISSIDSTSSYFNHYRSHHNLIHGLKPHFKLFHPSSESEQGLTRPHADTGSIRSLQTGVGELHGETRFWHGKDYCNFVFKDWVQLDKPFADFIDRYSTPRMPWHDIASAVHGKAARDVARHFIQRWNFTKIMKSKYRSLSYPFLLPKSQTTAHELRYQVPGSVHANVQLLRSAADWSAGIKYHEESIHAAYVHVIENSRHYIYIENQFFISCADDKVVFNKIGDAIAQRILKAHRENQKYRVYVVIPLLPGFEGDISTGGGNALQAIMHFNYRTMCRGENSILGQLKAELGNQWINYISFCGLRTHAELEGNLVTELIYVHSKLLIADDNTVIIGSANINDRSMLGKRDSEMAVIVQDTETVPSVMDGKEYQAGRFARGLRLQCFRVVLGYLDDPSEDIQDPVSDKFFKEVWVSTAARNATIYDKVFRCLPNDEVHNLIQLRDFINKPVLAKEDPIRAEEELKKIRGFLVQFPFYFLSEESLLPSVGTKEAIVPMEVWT

phospholipase D1 (PLD1) [2] = target: T1, phospholipase D1 (PLD1); experiment: co-IP; after nucleocytoplasmic separation (NE-PER nuclear and cytoplasmic extracts) of EV, WT, NLM and KRM cell lines; antibody on protein A/G magnetic beads, overnight at 4°C
PH domain of PLD1 = target: T2, PH domain of PLD1 (UniProt Q13393); experiment: co-IP; with PLD1 deletion constructs and with NPM1 deletion constructs; host and tags not shown
T2 sequence: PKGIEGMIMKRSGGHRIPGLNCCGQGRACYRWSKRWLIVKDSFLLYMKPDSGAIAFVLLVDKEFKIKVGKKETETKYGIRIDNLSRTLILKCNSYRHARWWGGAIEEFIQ

Measured: binding

nucleophosmin 1 (NPM1) (from UniProt P06748 1-294)
binds: phospholipase D1 (PLD1) [1] | phospholipase D1 (PLD1) [2] | PH domain of PLD1
